# Reference: the supplement of paper PMC10849652
# Amino acid sequences for entries named in this document (tags omitted). A change or cut given only in a name is not applied to a line headed by its entry.
# UniProt Q86SR1: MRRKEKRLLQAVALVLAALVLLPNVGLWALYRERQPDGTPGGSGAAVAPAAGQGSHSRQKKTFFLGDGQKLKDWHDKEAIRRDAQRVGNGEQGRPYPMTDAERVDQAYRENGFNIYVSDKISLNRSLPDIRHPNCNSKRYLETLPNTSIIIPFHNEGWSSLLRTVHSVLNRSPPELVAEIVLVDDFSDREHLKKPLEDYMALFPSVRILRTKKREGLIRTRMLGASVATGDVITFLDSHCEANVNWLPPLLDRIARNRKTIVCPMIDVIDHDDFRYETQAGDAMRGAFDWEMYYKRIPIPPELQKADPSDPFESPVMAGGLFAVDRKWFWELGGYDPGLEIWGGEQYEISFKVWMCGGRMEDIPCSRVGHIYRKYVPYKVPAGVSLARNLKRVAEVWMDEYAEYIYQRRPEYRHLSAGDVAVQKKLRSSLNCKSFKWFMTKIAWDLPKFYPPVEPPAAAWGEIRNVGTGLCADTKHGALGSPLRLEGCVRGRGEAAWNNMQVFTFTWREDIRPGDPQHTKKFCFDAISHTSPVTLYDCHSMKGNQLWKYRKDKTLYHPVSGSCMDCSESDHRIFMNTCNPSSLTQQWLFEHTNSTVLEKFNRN
# UniProt P04066: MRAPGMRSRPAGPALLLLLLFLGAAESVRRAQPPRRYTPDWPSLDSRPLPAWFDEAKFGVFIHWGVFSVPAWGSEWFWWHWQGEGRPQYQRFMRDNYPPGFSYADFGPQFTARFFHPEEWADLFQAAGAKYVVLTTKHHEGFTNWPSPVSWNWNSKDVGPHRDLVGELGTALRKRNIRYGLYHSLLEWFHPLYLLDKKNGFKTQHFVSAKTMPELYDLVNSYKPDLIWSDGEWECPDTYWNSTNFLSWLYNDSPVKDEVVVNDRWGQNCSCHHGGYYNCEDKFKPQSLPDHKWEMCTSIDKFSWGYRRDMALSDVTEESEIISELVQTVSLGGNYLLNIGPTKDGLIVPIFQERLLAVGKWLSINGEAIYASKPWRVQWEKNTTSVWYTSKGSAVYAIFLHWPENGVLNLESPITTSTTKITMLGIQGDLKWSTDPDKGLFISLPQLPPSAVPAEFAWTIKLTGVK
# UniProt Q8N9F7: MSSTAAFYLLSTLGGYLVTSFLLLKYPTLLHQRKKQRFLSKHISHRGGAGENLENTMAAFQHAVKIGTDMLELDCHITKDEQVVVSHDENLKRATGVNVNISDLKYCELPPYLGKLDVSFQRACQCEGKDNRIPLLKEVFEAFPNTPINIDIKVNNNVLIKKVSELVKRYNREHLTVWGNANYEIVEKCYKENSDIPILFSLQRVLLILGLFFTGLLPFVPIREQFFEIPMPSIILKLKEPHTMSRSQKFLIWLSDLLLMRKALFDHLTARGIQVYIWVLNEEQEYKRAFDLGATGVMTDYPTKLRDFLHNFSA
# UniProt Q06546: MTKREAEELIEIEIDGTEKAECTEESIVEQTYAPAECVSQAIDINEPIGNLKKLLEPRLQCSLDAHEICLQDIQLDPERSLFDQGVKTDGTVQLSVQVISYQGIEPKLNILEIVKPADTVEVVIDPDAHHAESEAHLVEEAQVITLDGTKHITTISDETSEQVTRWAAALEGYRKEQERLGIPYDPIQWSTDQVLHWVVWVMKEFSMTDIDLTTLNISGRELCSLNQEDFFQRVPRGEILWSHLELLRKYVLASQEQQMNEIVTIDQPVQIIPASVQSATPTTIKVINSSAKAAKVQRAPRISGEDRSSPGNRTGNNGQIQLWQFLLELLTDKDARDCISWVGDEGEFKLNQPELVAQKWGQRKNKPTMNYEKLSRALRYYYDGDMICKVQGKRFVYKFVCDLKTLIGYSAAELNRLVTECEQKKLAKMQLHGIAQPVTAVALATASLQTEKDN
# UniProt Q8N2G8: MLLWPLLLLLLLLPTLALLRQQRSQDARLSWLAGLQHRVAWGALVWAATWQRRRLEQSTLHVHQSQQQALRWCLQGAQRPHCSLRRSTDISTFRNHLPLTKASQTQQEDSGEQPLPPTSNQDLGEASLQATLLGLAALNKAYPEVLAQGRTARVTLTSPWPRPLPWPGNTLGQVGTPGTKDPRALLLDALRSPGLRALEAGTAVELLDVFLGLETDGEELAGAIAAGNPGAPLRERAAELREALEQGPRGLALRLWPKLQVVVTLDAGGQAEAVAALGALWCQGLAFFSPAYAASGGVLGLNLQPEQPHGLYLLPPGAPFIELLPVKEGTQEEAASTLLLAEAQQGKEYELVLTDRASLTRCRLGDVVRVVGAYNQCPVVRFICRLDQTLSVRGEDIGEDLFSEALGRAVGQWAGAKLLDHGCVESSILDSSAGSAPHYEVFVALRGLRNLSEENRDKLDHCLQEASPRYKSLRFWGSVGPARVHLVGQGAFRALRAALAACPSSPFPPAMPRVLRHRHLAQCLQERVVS
# UniProt Q9UJ14: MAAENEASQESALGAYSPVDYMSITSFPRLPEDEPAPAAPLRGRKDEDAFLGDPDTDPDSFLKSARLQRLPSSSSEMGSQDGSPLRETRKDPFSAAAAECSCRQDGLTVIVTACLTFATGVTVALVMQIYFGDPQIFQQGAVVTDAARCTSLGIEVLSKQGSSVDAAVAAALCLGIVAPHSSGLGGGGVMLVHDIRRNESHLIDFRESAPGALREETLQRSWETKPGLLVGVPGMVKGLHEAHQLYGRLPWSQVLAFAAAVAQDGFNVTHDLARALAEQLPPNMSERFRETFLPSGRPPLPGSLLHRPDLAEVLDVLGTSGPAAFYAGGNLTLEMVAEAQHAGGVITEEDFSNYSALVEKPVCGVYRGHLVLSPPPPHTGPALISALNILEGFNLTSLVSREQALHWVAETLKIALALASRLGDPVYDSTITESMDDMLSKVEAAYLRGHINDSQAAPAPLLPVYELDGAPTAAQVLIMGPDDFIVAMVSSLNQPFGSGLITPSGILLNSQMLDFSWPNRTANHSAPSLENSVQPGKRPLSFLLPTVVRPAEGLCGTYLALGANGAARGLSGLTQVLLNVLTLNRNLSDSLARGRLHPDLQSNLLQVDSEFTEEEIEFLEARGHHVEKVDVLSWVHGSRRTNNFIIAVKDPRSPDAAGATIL
# UniProt P54803: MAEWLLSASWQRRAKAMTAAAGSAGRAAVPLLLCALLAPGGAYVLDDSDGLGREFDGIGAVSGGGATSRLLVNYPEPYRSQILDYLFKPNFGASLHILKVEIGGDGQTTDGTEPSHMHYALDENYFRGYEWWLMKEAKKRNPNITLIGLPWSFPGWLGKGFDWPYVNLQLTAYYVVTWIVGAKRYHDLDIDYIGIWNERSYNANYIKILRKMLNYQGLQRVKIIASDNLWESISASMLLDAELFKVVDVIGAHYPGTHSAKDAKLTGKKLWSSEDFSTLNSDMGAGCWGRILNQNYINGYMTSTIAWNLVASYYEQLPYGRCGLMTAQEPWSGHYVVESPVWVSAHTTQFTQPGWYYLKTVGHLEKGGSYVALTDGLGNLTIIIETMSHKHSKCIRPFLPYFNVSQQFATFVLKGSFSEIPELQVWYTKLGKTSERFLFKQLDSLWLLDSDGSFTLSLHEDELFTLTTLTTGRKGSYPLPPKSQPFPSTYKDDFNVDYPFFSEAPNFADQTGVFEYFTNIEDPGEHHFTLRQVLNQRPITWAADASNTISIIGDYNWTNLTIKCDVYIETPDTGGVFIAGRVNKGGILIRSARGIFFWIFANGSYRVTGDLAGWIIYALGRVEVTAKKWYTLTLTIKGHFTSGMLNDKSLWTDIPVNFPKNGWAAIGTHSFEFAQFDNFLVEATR
# UniProt Q96NB1: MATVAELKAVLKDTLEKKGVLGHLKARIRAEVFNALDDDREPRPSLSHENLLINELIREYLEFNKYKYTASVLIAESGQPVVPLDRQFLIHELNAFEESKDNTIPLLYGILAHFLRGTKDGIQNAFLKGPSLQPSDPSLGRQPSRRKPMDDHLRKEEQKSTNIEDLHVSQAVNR
# UniProt P31150: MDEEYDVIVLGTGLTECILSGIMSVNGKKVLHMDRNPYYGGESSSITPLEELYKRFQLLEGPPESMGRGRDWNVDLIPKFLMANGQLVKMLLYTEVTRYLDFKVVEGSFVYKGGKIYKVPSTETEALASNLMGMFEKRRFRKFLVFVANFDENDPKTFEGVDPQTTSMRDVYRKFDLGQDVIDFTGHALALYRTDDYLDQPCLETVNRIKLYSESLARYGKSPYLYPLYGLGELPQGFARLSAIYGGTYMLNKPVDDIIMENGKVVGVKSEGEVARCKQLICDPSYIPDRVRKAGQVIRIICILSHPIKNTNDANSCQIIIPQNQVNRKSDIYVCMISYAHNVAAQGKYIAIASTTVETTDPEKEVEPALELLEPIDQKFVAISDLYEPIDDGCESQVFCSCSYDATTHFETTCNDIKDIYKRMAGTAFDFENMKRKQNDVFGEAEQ
# UniProt Q10471: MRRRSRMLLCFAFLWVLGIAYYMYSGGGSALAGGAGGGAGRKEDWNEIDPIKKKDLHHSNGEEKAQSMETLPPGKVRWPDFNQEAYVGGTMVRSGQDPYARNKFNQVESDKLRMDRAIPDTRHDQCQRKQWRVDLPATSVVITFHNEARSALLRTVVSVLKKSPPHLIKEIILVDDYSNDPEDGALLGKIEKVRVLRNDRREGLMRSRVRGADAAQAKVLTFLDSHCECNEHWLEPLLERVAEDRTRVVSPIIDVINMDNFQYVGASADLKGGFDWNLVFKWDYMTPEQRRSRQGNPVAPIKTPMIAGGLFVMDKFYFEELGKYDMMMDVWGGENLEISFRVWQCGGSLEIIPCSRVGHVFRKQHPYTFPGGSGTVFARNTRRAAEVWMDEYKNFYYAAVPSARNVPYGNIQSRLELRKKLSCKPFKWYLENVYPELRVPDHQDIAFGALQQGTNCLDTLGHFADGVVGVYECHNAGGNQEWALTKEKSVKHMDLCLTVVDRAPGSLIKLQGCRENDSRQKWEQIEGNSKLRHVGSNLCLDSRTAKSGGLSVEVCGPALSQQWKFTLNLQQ
# UniProt Q8IWJ2: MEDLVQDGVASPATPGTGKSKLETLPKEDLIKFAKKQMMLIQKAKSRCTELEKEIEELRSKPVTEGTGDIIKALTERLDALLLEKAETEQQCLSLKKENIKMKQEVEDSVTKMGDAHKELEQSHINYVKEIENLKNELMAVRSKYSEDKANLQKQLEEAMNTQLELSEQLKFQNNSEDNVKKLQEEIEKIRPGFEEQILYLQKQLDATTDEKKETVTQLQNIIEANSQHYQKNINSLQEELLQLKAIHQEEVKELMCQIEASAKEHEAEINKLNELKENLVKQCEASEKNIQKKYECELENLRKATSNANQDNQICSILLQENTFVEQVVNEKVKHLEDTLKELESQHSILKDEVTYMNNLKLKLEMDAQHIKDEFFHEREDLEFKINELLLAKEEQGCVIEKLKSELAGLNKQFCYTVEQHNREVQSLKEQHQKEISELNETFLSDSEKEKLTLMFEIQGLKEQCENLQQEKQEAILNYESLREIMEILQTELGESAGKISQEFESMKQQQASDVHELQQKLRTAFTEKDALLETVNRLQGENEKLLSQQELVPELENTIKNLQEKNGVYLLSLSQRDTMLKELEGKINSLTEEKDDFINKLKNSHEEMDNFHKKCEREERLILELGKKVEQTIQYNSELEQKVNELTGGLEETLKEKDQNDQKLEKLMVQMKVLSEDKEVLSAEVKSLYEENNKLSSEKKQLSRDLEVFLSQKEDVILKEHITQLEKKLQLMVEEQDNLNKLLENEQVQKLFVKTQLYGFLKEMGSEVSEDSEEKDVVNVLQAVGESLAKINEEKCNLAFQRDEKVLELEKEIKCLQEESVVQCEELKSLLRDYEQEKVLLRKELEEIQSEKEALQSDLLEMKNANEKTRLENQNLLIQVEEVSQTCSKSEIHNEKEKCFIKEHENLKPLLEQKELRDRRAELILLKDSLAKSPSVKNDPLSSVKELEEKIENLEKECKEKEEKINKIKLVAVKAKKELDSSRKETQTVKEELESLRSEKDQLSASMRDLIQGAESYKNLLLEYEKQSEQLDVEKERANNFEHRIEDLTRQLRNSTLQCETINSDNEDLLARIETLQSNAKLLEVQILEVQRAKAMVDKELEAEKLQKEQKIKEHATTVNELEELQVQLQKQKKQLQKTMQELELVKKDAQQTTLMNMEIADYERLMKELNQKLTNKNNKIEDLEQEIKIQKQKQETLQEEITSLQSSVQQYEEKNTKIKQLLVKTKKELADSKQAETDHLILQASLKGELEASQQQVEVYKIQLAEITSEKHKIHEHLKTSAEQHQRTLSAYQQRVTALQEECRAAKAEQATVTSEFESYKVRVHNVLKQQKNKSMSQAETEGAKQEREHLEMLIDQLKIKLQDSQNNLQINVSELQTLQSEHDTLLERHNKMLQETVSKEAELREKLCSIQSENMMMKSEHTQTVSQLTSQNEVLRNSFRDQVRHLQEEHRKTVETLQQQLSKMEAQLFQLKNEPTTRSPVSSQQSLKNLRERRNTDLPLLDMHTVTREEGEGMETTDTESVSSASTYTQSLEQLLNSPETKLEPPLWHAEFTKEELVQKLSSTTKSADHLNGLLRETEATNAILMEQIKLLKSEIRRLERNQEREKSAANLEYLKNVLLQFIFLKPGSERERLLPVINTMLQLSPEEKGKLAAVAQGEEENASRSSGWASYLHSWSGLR
# The other results are listed elsewhere or left out.
# Compound: Cc1cn(-c2cc(NC(=O)c3ccc(C)c(Nc4nccc(-c5cccnc5)n4)c3)cc(C(F)(F)F)c2)cn1 [nilotinib]
# Assay: log2 fold change, soluble protein after heating vs DMSO (PISA); higher = thermal stabilisation; K562 cells, 10 uM, 30 min; active = over 0.2 and 3.5 SD of the protein, either way, in both replicates (recomputed)
# Procedure, shortened: (§1)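 K562 cells at 2×10^6 cells/mL were treated with 10 μM compound for 30 min. Aliquots were heated for 3 min across 48°C-58°C, pooled, and extracted in PBS with 0.5% NP-40 at 4°C; soluble protein was the supernatant after 21,000xg for 90 min. Soluble protein was quantified by TMTpro 16plex LC-MS/MS with channel sums equalised, and reported as log2 fold change in thermal stability against DMSO controls, with values from duplicates.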
row,Target,log2 fold change
1,GALNT11 (UniProt Q8NCW6),inactive: -0.047
2,GEMIN6 (UniProt Q8WXD5),inactive: 0.004
3,GALNT10 (UniProt Q86SR1),inactive: -0.075
4,FOSL1 (UniProt P15407),inactive: 0.004
5,GALNT4 (UniProt Q8N4A0),inactive: -0.049
6,FNTB (UniProt P49356),inactive: 0.028
7,FOXK1 (UniProt P85037),inactive: 0.487
8,GAPVD1 isoform 6 (UniProt Q14C86),inactive: -0.09
9,FUCA1 (UniProt P04066),inactive: -0.011
10,GCSH (UniProt P23434),inactive: -0.022
11,GCLM (UniProt P48507),inactive: -0.101
12,GALK1 isoform 2 (UniProt P51570),inactive: -0.018
13,GCDH (UniProt Q92947),inactive: 0.002
14,GDPD1 (UniProt Q8N9F7),inactive: 0.1
15,GEMIN2 (UniProt O14893),inactive: -0.045
16,GABPA (UniProt Q06546),inactive: -0.103

row,Target,log2 fold change
1,GARS1 (UniProt H7C443),inactive: -0.171
2,GATD1 (UniProt Q8NB37),inactive: 0.059
3,GHDC (UniProt Q8N2G8),inactive: 0.036
4,GGT7 (UniProt Q9UJ14),inactive: 0.026
5,GALC (UniProt P54803),inactive: 0.008
6,GALNT1 (UniProt Q10472),inactive: -0.059
7,GABARAPL1 isoform 2 (UniProt Q9H0R8),inactive: -0.05
8,GEMIN5 (UniProt Q8TEQ6),inactive: -0.046
9,FOPNL (UniProt Q96NB1),inactive: 0.28
10,GDI1 (UniProt P31150),inactive: 0.001
11,GALNT2 (UniProt Q10471),inactive: -0.07
12,GCC2 (UniProt Q8IWJ2),inactive: -0.14
13,GATA1 (UniProt P15976),inactive: 0.028
14,GAGE12F (UniProt P0CL80),inactive: 0.052
15,FUCA2 (UniProt Q9BTY2),inactive: 0.032
16,GBF1 (UniProt Q92538),inactive: -0.117

# Compound: Cc1nc(Nc2n[nH]c3c2CN(C(=O)N[C@H](CN(C)C)c2ccccc2)C3(C)C)c2sccc2n1
# Assay: as above
# Procedure, shortened: as §1
row,Target,log2 fold change
1,GALNT11 (UniProt Q8NCW6),inactive: -0.068
2,GEMIN6 (UniProt Q8WXD5),inactive: 0.015
3,GALNT10 (UniProt Q86SR1),inactive: -0.033
4,FOSL1 (UniProt P15407),inactive: 0.019
5,GALNT4 (UniProt Q8N4A0),inactive: 0.006
6,FNTB (UniProt P49356),inactive: 0.177
7,FOXK1 (UniProt P85037),inactive: -0.816
8,GAPVD1 isoform 6 (UniProt Q14C86),inactive: -0.092
9,FUCA1 (UniProt P04066),inactive: -0.01
10,GCSH (UniProt P23434),inactive: 0.01
11,GCLM (UniProt P48507),inactive: -0.015
12,GALK1 isoform 2 (UniProt P51570),inactive: -0.001
13,GCDH (UniProt Q92947),inactive: 0.017
14,GDPD1 (UniProt Q8N9F7),inactive: 0.104
15,GEMIN2 (UniProt O14893),inactive: 0
16,GABPA (UniProt Q06546),inactive: -0.115

row,Target,log2 fold change
1,GARS1 (UniProt H7C443),inactive: 0.007
2,GATD1 (UniProt Q8NB37),inactive: -0.016
3,GHDC (UniProt Q8N2G8),inactive: -0.001
4,GGT7 (UniProt Q9UJ14),inactive: 0.015
5,GALC (UniProt P54803),inactive: 0.045
6,GALNT1 (UniProt Q10472),inactive: 0.014
7,GABARAPL1 isoform 2 (UniProt Q9H0R8),inactive: -0.028
8,GEMIN5 (UniProt Q8TEQ6),active: -0.315
9,FOPNL (UniProt Q96NB1),inactive: 0.468
10,GDI1 (UniProt P31150),inactive: 0.017
11,GALNT2 (UniProt Q10471),inactive: -0.066
12,GCC2 (UniProt Q8IWJ2),inactive: -0.071
13,GATA1 (UniProt P15976),inactive: 0.033
14,GAGE12F (UniProt P0CL80),inactive: -0.085
15,FUCA2 (UniProt Q9BTY2),inactive: 0.001
16,GBF1 (UniProt Q92538),inactive: -0.109

# Compound: Cc1nc(Nc2ncc(C(=O)Nc3c(C)cccc3Cl)s2)cc(N2CCN(CCO)CC2)n1 [dasatinib]
# Assay: as above
# Procedure, shortened: as §1
row,Target,log2 fold change
1,GALNT11 (UniProt Q8NCW6),inactive: -0.022
2,GEMIN6 (UniProt Q8WXD5),inactive: -0.024
3,GALNT10 (UniProt Q86SR1),inactive: -0.013
4,FOSL1 (UniProt P15407),inactive: 0.036
5,GALNT4 (UniProt Q8N4A0),inactive: -0.021
6,FNTB (UniProt P49356),inactive: 0.22
7,FPGS (UniProt Q05932),inactive: 0.194
8,GAB2 (UniProt Q9UQC2),inactive: -0.599
9,FOXK1 (UniProt P85037),inactive: 0.128
10,GAPVD1 isoform 6 (UniProt Q14C86),inactive: -0.15
11,FUCA1 (UniProt P04066),inactive: -0.009
12,GCSH (UniProt P23434),inactive: 0.015
13,GCLM (UniProt P48507),inactive: -0.095
14,GALK1 isoform 2 (UniProt P51570),inactive: -0.043
15,GCDH (UniProt Q92947),inactive: -0.059
16,GDPD1 (UniProt Q8N9F7),inactive: 0.023
17,GEMIN2 (UniProt O14893),inactive: 0.049

row,Target,log2 fold change
1,GABPA (UniProt Q06546),inactive: -0.12
2,GATD1 (UniProt Q8NB37),inactive: -0.011
3,GHDC (UniProt Q8N2G8),inactive: 0.027
4,GGT7 (UniProt Q9UJ14),inactive: -0.02
5,GALC (UniProt P54803),inactive: 0.096
6,GALNT1 (UniProt Q10472),inactive: 0.014
7,GABARAPL1 isoform 2 (UniProt Q9H0R8),inactive: -0.031
8,GEMIN5 (UniProt Q8TEQ6),inactive: -0.099
9,FOPNL (UniProt Q96NB1),inactive: 0.02
10,GDI1 (UniProt P31150),inactive: -0.053
11,GALNT2 (UniProt Q10471),inactive: -0.004
12,GCC2 (UniProt Q8IWJ2),inactive: -0.011
13,GATA1 (UniProt P15976),inactive: 0.157
14,GAGE12F (UniProt P0CL80),inactive: 0.009
15,FUCA2 (UniProt Q9BTY2),inactive: 0.022
16,GBF1 (UniProt Q92538),inactive: -0.113
